Results reported in the supplement of paper PMC7661543.
Differences between knockout arms are mostly noise.

System: MDA-MB-231
Assay: relative cell number vs DMSO control (72 h) (% of DMSO); higher = less growth inhibition (more cells)
Protocol: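 QMAP-Seq: a pool of 5 breast cancer cell lines (ZR-75-1, SKBR3, HCC-38, MDA-MB-231, BT-20), each carrying 12 doxycycline-inducible Cas9 sgRNA perturbations (11 knockouts plus non-targeting sgNT), was treated with compounds for 72 h at four 10-fold doses (10 nM-10 uM or 1 nM-1 uM range). Barcodes were amplified and sequenced, and cell number was interpolated from 293T spike-in standard curves. The result is expressed as % of the median of DMSO wells. Two biological replicates.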

CN(C)CC[C@H](CSc1ccccc1)Nc1ccc(S(=O)(=O)NC(=O)c2ccc(N3CCN(Cc4ccccc4-c4ccc(Cl)cc4)CC3)cc2)cc1[N+](=O)[O-] [ABT737]
Settings | relative cell number
sgRNA knockout: sgATF3, 10 nM | 67.8
sgRNA knockout: sgATF3, 100 nM | 101
sgRNA knockout: sgATF3, 1000 nM | 95
sgRNA knockout: sgATF3, 10000 nM | 53.1
sgRNA knockout: sgATF4, 10 nM | 72.4
sgRNA knockout: sgATF4, 100 nM | 96.7
sgRNA knockout: sgATF4, 1000 nM | 87.4
sgRNA knockout: sgATF4, 10000 nM | 49.9
sgRNA knockout: sgATF6, 10 nM | 88.8
sgRNA knockout: sgATF6, 100 nM | 103
sgRNA knockout: sgATF6, 1000 nM | 89
sgRNA knockout: sgATF6, 10000 nM | 55.1
sgRNA knockout: sgATG7, 10 nM | 82.2
sgRNA knockout: sgATG7, 100 nM | 86.2
sgRNA knockout: sgATG7, 1000 nM | 90.7
sgRNA knockout: sgATG7, 10000 nM | 55.4
sgRNA knockout: sgERN1, 10 nM | 111
sgRNA knockout: sgERN1, 100 nM | 85.2
sgRNA knockout: sgERN1, 1000 nM | 97.1
sgRNA knockout: sgERN1, 10000 nM | 66.7
sgRNA knockout: sgHSF1, 10 nM | 91.2
sgRNA knockout: sgHSF1, 100 nM | 88.102
sgRNA knockout: sgHSF1, 1000 nM | 112
sgRNA knockout: sgHSF1, 10000 nM | 54.5
sgRNA knockout: sgHSF2, 10 nM | 101
sgRNA knockout: sgHSF2, 100 nM | 83
sgRNA knockout: sgHSF2, 1000 nM | 89.4
sgRNA knockout: sgHSF2, 10000 nM | 69.7
sgRNA knockout: sgKEAP1, 10 nM | 94.9
sgRNA knockout: sgKEAP1, 100 nM | 89
sgRNA knockout: sgKEAP1, 1000 nM | 87.39
sgRNA knockout: sgKEAP1, 10000 nM | 89.9
sgRNA knockout: sgNFE2L2, 10 nM | 75.3
sgRNA knockout: sgNFE2L2, 100 nM | 82.2
sgRNA knockout: sgNFE2L2, 1000 nM | 96.9
sgRNA knockout: sgNFE2L2, 10000 nM | 58.2
sgRNA knockout: sgSLC35F2, 10 nM | 90
sgRNA knockout: sgSLC35F2, 100 nM | 85.1
sgRNA knockout: sgSLC35F2, 1000 nM | 78.1
sgRNA knockout: sgSLC35F2, 10000 nM | 57.5
sgRNA knockout: sgXBP1, 10 nM | 87
sgRNA knockout: sgXBP1, 100 nM | 90.3
sgRNA knockout: sgXBP1, 1000 nM | 88.6
sgRNA knockout: sgXBP1, 10000 nM | 81.5

CN/C(=N\CCSCc1nc[nH]c1C)NC#N [Cimetidine]
Settings | relative cell number
sgRNA knockout: sgATF3, 10 nM | 120
sgRNA knockout: sgATF3, 100 nM | 95.3
sgRNA knockout: sgATF3, 1000 nM | 111
sgRNA knockout: sgATF3, 10000 nM | 109
sgRNA knockout: sgATF4, 10 nM | 119
sgRNA knockout: sgATF4, 100 nM | 109
sgRNA knockout: sgATF4, 1000 nM | 119
sgRNA knockout: sgATF4, 10000 nM | 135
sgRNA knockout: sgATF6, 10 nM | 78.6
sgRNA knockout: sgATF6, 100 nM | 116
sgRNA knockout: sgATF6, 1000 nM | 92.4
sgRNA knockout: sgATF6, 10000 nM | 93.2
sgRNA knockout: sgATG7, 10 nM | 107
sgRNA knockout: sgATG7, 100 nM | 98.7
sgRNA knockout: sgATG7, 1000 nM | 80.8
sgRNA knockout: sgATG7, 10000 nM | 115
sgRNA knockout: sgERN1, 10 nM | 123
sgRNA knockout: sgERN1, 100 nM | 103
sgRNA knockout: sgERN1, 1000 nM | 100
sgRNA knockout: sgERN1, 10000 nM | 128
sgRNA knockout: sgHSF1, 10 nM | 96.7
sgRNA knockout: sgHSF1, 100 nM | 111
sgRNA knockout: sgHSF1, 1000 nM | 89.2
sgRNA knockout: sgHSF1, 10000 nM | 107
sgRNA knockout: sgHSF2, 10 nM | 83.8
sgRNA knockout: sgHSF2, 100 nM | 104
sgRNA knockout: sgHSF2, 1000 nM | 91
sgRNA knockout: sgHSF2, 10000 nM | 99.9
sgRNA knockout: sgKEAP1, 10 nM | 116
sgRNA knockout: sgKEAP1, 100 nM | 98.6
sgRNA knockout: sgKEAP1, 1000 nM | 111
sgRNA knockout: sgKEAP1, 10000 nM | 101
sgRNA knockout: sgNFE2L2, 10 nM | 112
sgRNA knockout: sgNFE2L2, 100 nM | 109
sgRNA knockout: sgNFE2L2, 1000 nM | 97.5
sgRNA knockout: sgNFE2L2, 10000 nM | 92.8
sgRNA knockout: sgSLC35F2, 10 nM | 97.2
sgRNA knockout: sgSLC35F2, 100 nM | 106
sgRNA knockout: sgSLC35F2, 1000 nM | 90.5
sgRNA knockout: sgSLC35F2, 10000 nM | 95.3
sgRNA knockout: sgXBP1, 10 nM | 102
sgRNA knockout: sgXBP1, 100 nM | 96.3
sgRNA knockout: sgXBP1, 1000 nM | 83.9
sgRNA knockout: sgXBP1, 10000 nM | 112

N#Cc1ccc(COC[C@H]2O[C@@H](n3c(NCc4ccc(Cl)c(Cl)c4)nc4c(N)ncnc43)[C@H](O)[C@@H]2O)cc1
Settings | relative cell number
sgRNA knockout: sgATF3, 10 nM | 109
sgRNA knockout: sgATF3, 100 nM | 83.8
sgRNA knockout: sgATF3, 1000 nM | 89.6
sgRNA knockout: sgATF3, 10000 nM | 27.9
sgRNA knockout: sgATF4, 10 nM | 127
sgRNA knockout: sgATF4, 100 nM | 78.3
sgRNA knockout: sgATF4, 1000 nM | 86.5
sgRNA knockout: sgATF4, 10000 nM | 39.9
sgRNA knockout: sgATF6, 10 nM | 85.6
sgRNA knockout: sgATF6, 100 nM | 72.3
sgRNA knockout: sgATF6, 1000 nM | 87
sgRNA knockout: sgATF6, 10000 nM | 30.8
sgRNA knockout: sgATG7, 10 nM | 106
sgRNA knockout: sgATG7, 100 nM | 99
sgRNA knockout: sgATG7, 1000 nM | 78.5
sgRNA knockout: sgATG7, 10000 nM | 39.7
sgRNA knockout: sgERN1, 10 nM | 110
sgRNA knockout: sgERN1, 100 nM | 102
sgRNA knockout: sgERN1, 1000 nM | 106
sgRNA knockout: sgERN1, 10000 nM | 28.7
sgRNA knockout: sgHSF1, 10 nM | 89.2
sgRNA knockout: sgHSF1, 100 nM | 97.7
sgRNA knockout: sgHSF1, 1000 nM | 84.9
sgRNA knockout: sgHSF1, 10000 nM | 20.6
sgRNA knockout: sgHSF2, 10 nM | 77.6
sgRNA knockout: sgHSF2, 100 nM | 84.1
sgRNA knockout: sgHSF2, 1000 nM | 88.6
sgRNA knockout: sgHSF2, 10000 nM | 31.7
sgRNA knockout: sgKEAP1, 10 nM | 112
sgRNA knockout: sgKEAP1, 100 nM | 99.3
sgRNA knockout: sgKEAP1, 1000 nM | 98.6
sgRNA knockout: sgKEAP1, 10000 nM | 31.3
sgRNA knockout: sgNFE2L2, 10 nM | 102
sgRNA knockout: sgNFE2L2, 100 nM | 105
sgRNA knockout: sgNFE2L2, 1000 nM | 95.7
sgRNA knockout: sgNFE2L2, 10000 nM | 35.8
sgRNA knockout: sgSLC35F2, 10 nM | 97.8
sgRNA knockout: sgSLC35F2, 100 nM | 120
sgRNA knockout: sgSLC35F2, 1000 nM | 101
sgRNA knockout: sgSLC35F2, 10000 nM | 24.5
sgRNA knockout: sgXBP1, 10 nM | 95.2
sgRNA knockout: sgXBP1, 100 nM | 114
sgRNA knockout: sgXBP1, 1000 nM | 94.9
sgRNA knockout: sgXBP1, 10000 nM | 34.1
